We go through one molecule from PMC6039501.

Amino acid sequences for entries named in this document (tags omitted).
UniProt O15524: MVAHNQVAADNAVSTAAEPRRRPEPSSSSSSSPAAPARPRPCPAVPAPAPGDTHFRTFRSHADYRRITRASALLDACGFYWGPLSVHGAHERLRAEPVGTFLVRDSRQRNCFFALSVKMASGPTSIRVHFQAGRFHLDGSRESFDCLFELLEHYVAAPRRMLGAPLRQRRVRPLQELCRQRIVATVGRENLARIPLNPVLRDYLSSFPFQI

No constants are given. Whether binding was seen depends on the method and setting. Binding seen in cells or lysates may run through a third protein. Here binding means that the protein was enriched with, or labelled near, the bait; the list need not be complete.

The target of the test is Myc-SOCS1 (suppressor of cytokine signalling-1) (UniProt O15524). The test is described as follows: affinity purification with mass spectrometry; Myc-SOCS1 overexpressed in KG-1 cells; immunoprecipitation with a SOCS1-specific antibody, Protein A/G-Sepharose, 6 h at 4 °C; bands analysed by ion-trap MS.

B1: CUE domain-containing 2 (CUEDC2), endogenous (protein, UniProt Q9H467 1-287)
chain: MELERIVSAALLAFVQTHLPEADLSGLDEVIFSYVLGVLEDLGPSGPSEENFDMEAFTEMMEAYVPGFAHIPRGTIGDMMQKLSGQLSDARNKENLQPQSSGVQGQVPISPEPLQRPEMLKEETRSSAAAAADTQDEATGAEEELLPGVDVLLEVFPTCSVEQAQWVLAKARGDLEEAVQMLVEGKEEGPAAWEGPNQDLPRRLRGPQKDELKSFILQKYMMVDSAEDQKIHRPMAPKEAPKKLIRYIDNQVVSTKGERFKDVRNPEAEEMKATYINLKPARKYRFH
For the molecule B1, the binding result is “binds”.
